We go through one molecule from patent US20100009439A1.

This assay has as its target purified full-length human IGF-I receptor (human), P08069. Description: ELISA on immobilized IGF-I receptor with prolonged washes. To be noted: remark: other sources report otherwise. On the technique in general: ELISA stands for enzyme-linked immunosorbent assay.

No constants are given. Whether binding was seen depends on the method and setting. Some entries that bind do so weakly or less than the wild type.

B1: murine EM164 antibody (antibody, V domains shown)
VH: QVQLQQSGAELVKPGASVKLSCKASGYTFTSYWMHWVKQRPGQGLEWIGEINPSNGRTNYNEKFKRKATLTVDKSSSTAYMQLSSLTSEDSAVYYFARGRPDYYGSSKWYFDVWGAGTTVTVS
VL: DVLMTQTPLSLPVSLGDQASISCRSSQSIVHSNVNTYLEWYLQKPGQSPKLLIYKVSNRFSGVPDRFSGSGSGTDFTLRISRVEAEDLGIYYCFQGSHVPPTFGGGTKLEIKR
modifications: here or on the partner: biotinylated with PEO-maleimide-biotin in the captured format
For the molecule B1, the binding result is given as “binds”.
